From publication PMC10492807
These are yes or no findings as the source states them, for the method shown. Binding seen in cells or lysates may run through a third protein. For some of these results: Binding can be weak; no strength is given. For some of these results: Where a sequence is shown, tags or fusion partners need not be part of it.

T1: PBP2SAL-3xHA (Salmonella enterica serovar Typhimurium) (UniProt E1WGF1)
T1 sequence: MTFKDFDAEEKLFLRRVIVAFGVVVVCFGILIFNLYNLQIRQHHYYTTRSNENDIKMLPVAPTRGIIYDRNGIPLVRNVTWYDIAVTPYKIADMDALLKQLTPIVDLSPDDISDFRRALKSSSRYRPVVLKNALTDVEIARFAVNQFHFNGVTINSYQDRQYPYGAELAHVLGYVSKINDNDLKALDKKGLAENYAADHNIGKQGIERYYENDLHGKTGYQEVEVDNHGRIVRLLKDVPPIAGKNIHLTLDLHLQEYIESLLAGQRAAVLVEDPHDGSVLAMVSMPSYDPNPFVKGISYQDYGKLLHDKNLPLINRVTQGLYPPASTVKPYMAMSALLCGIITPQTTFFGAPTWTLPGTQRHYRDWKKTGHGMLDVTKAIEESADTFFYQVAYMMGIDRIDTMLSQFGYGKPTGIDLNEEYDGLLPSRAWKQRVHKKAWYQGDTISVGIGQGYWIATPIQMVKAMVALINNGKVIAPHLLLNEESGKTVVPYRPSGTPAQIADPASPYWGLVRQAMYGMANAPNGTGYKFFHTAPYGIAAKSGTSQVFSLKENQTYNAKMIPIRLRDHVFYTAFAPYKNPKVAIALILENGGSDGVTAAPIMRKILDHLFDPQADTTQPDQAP

T2: PBP2SAL-3xFLAG (Salmonella enterica serovar Typhimurium) (UniProt E1WGF1)
T2 sequence: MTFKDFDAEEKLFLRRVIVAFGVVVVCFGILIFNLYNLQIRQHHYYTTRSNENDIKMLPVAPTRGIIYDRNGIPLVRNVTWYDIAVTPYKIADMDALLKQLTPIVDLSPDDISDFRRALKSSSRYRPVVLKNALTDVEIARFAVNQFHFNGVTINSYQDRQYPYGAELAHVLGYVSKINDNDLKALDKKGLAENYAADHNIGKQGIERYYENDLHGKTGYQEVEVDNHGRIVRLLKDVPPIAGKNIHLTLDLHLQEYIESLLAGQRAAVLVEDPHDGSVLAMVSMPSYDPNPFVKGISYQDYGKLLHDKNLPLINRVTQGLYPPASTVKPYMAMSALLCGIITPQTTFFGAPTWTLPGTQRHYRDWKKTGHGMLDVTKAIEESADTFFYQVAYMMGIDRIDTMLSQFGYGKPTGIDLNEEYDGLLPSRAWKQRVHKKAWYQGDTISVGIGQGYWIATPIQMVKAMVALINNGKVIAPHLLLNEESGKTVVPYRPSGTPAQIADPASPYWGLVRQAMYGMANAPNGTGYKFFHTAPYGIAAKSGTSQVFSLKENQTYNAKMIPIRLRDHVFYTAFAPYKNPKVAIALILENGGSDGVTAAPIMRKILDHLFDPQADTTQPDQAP


How the values were obtained:
[1] = target: T1, PBP2SAL-3xHA (Salmonella enterica serovar Typhimurium); assay: co-IP; in vivo cross-linking with DSP of wild-type background strains (PBP2SAL-3xHA plus a 3xFLAG-tagged D,D-CPase or FepA) grown in LB pH 4.6; NP-40 membrane extracts immunoprecipitated with anti-PBP2, anti-HA or anti-FLAG; gels with β-mercaptoethanol; Western blot
[2] = target: T2, PBP2SAL-3xFLAG (Salmonella enterica serovar Typhimurium); assay: co-IP; in vivo cross-linking with DSS (2.5 mM, PBS pH 8.0, 30 min RT) of bacteria grown in LB pH 4.6; NP-40 membrane extracts of WT, ΔmrdA and ΔPBP2SAL strains immunoprecipitated with anti-FLAG or anti-PBP2, protein G dynabeads; Western blot
[3] = target: DacA-3xFLAG (Salmonella enterica serovar Typhimurium); assay: co-IP; in vivo cross-linking with DSP of wild-type background strains (PBP2SAL-3xHA plus a 3xFLAG-tagged D,D-CPase or FepA) grown in LB pH 4.6; NP-40 membrane extracts immunoprecipitated with anti-PBP2, anti-HA or anti-FLAG; gels with β-mercaptoethanol; Western blot
[4] = target: DacB-3xFLAG (Salmonella enterica serovar Typhimurium); assay: as above
[5] = target: DacC-3xFLAG (Salmonella enterica serovar Typhimurium); assay: as above
[6] = target: DacD-3xFLAG (Salmonella enterica serovar Typhimurium); assay: as above

| Molecule | binding [1] | further results |
| --- | --- | --- |
| DacA-3xFLAG (Salmonella enterica serovar Typhimurium) (enzyme) | binds |  |
| DacB-3xFLAG (Salmonella enterica serovar Typhimurium) (enzyme) | binds |  |
| DacC-3xFLAG (Salmonella enterica serovar Typhimurium) (enzyme) | binds |  |
| DacD-3xFLAG (Salmonella enterica serovar Typhimurium) (enzyme) | binds |  |
| FepA-3xFLAG (Salmonella enterica serovar Typhimurium) | no binding |  |
| PBP2 (MrdA) (enzyme) |  | binding [2]: no binding |
| PBP2SAL-3xHA (enzyme, UniProt E1WGF1 1-623) MTFKDFDAEEKLFLRRVIVAFGVVVVCFGILIFNLYNLQIRQHHYYTTRSNENDIKMLPVAPTRGIIYDRNGIPLVRNVTWYDIAVTPYKIADMDALLKQLTPIVDLSPDDISDFRRALKSSSRYRPVVLKNALTDVEIARFAVNQFHFNGVTINSYQDRQYPYGAELAHVLGYVSKINDNDLKALDKKGLAENYAADHNIGKQGIERYYENDLHGKTGYQEVEVDNHGRIVRLLKDVPPIAGKNIHLTLDLHLQEYIESLLAGQRAAVLVEDPHDGSVLAMVSMPSYDPNPFVKGISYQDYGKLLHDKNLPLINRVTQGLYPPASTVKPYMAMSALLCGIITPQTTFFGAPTWTLPGTQRHYRDWKKTGHGMLDVTKAIEESADTFFYQVAYMMGIDRIDTMLSQFGYGKPTGIDLNEEYDGLLPSRAWKQRVHKKAWYQGDTISVGIGQGYWIATPIQMVKAMVALINNGKVIAPHLLLNEESGKTVVPYRPSGTPAQIADPASPYWGLVRQAMYGMANAPNGTGYKFFHTAPYGIAAKSGTSQVFSLKENQTYNAKMIPIRLRDHVFYTAFAPYKNPKVAIALILENGGSDGVTAAPIMRKILDHLFDPQADTTQPDQAP |  | binding [3]: binds; binding [4]: binds; binding [5]: binds; binding [6]: binds |
